Data reported in the supplement of paper PMC10849652.
Some of the results follow.

Amino acid sequences for entries named in this document (tags omitted). A change or cut given only in a name is not applied to a line headed by its entry.
UniProt Q86W56: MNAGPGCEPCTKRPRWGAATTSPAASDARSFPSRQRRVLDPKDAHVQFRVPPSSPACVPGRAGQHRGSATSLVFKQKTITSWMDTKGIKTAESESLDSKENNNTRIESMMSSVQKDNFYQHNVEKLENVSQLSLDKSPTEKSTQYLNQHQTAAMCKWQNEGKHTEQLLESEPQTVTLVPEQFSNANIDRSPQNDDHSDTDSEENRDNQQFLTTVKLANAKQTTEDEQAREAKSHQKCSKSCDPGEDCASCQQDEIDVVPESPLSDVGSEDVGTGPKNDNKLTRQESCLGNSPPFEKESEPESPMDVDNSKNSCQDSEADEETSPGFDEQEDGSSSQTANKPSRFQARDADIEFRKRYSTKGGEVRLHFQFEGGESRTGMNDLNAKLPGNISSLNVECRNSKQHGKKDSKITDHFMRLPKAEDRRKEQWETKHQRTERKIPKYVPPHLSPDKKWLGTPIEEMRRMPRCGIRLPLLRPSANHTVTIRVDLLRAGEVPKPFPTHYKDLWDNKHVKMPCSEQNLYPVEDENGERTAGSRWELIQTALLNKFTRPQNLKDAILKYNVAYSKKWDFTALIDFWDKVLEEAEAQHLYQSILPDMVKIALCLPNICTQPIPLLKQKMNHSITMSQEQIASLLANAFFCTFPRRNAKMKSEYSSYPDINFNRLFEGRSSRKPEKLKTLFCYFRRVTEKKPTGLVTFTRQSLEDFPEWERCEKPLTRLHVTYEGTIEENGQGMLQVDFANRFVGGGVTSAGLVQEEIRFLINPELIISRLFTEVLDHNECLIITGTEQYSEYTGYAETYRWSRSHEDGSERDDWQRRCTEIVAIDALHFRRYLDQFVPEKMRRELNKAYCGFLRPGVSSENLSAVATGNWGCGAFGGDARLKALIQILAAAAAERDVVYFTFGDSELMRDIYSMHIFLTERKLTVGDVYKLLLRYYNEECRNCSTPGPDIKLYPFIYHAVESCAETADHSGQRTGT
UniProt Q86YH6: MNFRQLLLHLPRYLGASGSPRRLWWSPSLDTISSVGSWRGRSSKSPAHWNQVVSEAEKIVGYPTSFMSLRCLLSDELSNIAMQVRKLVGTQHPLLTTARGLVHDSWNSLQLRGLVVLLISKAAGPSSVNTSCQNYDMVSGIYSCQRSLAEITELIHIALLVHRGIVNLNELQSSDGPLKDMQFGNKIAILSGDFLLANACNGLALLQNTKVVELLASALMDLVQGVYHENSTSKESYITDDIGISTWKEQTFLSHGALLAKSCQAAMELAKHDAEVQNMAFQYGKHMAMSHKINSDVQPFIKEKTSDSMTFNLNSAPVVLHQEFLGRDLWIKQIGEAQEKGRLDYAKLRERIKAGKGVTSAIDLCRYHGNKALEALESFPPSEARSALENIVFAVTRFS
UniProt P27815: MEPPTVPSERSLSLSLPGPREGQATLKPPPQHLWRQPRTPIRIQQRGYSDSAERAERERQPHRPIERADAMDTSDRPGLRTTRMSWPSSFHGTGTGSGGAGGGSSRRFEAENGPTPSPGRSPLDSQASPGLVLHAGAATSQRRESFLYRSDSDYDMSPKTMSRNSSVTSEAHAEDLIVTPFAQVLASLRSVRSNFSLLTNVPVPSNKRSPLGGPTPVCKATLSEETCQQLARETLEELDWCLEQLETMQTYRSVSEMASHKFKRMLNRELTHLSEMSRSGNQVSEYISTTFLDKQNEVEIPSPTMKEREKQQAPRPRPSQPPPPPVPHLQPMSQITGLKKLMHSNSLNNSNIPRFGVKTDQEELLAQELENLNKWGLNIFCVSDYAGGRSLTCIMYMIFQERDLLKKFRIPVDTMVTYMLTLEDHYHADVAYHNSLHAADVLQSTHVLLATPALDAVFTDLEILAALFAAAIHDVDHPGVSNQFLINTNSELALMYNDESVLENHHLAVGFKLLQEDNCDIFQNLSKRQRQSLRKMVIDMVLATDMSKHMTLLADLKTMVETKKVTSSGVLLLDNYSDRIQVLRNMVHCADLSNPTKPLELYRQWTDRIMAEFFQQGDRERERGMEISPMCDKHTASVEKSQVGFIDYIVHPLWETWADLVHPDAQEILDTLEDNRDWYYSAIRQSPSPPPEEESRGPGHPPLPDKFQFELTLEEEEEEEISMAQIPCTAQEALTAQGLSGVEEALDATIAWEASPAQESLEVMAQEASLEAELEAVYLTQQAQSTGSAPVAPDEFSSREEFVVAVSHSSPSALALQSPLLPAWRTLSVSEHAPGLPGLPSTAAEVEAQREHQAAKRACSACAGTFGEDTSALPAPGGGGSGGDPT
UniProt Q96KB5: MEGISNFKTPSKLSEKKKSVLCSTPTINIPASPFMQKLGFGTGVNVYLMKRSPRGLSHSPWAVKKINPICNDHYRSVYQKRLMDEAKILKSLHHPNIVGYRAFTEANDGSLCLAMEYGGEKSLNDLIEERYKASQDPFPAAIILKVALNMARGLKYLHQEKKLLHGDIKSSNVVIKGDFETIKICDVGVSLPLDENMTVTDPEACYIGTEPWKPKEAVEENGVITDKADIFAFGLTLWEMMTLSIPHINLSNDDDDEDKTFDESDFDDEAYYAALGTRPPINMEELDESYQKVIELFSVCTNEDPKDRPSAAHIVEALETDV
UniProt Q96AQ6: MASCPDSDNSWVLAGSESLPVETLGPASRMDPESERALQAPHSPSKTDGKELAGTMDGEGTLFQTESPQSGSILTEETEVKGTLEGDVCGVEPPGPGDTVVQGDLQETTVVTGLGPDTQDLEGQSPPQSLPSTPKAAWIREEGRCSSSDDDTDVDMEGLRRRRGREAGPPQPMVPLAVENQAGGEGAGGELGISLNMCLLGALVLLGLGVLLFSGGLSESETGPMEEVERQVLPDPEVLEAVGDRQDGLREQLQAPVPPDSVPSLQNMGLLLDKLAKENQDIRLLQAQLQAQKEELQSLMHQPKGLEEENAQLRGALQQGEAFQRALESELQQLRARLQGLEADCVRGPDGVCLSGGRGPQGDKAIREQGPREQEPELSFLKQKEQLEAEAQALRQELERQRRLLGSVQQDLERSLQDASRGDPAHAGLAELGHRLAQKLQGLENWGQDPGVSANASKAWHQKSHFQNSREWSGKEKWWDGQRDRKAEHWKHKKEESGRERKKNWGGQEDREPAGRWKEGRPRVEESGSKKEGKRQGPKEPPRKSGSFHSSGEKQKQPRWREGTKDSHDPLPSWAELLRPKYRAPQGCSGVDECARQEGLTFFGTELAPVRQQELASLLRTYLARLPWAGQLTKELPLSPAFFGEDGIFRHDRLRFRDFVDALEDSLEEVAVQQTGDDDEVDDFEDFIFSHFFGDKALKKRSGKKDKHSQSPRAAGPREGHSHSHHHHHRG
UniProt Q9BRX2, whole entry, looked up: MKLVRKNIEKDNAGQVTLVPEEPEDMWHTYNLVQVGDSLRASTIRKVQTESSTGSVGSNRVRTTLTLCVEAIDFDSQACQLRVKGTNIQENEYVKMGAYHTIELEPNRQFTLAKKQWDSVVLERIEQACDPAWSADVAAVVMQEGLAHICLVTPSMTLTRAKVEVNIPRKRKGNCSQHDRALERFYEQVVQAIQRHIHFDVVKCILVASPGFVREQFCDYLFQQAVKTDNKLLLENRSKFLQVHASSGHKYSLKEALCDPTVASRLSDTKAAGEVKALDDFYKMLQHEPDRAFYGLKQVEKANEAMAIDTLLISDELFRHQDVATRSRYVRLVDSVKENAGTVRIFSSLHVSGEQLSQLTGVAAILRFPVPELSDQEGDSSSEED
UniProt Q15365, whole entry, looked up: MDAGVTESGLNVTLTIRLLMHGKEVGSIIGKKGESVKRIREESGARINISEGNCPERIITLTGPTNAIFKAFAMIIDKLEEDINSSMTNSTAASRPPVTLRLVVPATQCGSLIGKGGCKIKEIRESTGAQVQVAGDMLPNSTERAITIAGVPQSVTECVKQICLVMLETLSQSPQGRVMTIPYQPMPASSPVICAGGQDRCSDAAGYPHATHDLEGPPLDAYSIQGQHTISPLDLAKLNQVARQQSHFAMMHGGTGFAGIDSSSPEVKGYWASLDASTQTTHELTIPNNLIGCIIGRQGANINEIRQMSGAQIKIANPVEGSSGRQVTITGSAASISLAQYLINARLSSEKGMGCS
UniProt P08559, whole entry, looked up: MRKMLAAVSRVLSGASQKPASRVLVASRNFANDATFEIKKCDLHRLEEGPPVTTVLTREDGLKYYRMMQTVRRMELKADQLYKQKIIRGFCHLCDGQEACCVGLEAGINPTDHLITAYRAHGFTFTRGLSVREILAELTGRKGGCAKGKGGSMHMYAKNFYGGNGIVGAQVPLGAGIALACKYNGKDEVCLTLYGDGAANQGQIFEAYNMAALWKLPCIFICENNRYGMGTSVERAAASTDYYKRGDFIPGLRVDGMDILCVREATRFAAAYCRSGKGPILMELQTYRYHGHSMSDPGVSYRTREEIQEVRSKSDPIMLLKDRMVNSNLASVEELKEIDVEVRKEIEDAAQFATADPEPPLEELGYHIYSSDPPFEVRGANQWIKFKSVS
UniProt P13667: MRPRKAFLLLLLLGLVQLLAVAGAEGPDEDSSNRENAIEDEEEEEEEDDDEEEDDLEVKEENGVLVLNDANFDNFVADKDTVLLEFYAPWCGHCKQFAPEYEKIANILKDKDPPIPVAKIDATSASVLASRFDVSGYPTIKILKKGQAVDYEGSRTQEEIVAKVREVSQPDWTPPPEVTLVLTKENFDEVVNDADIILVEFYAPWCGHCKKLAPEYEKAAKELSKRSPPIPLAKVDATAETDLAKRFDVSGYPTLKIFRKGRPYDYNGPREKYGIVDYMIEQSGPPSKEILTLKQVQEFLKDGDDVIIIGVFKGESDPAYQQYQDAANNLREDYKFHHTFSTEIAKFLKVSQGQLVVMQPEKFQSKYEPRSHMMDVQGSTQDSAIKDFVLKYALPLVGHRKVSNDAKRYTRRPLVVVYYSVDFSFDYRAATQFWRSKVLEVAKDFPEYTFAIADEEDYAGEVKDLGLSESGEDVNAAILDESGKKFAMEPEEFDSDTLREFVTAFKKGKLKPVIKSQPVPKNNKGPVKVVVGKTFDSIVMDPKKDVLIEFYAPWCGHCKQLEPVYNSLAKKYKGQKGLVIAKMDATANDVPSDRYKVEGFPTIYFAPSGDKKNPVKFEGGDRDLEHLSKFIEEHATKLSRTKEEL
UniProt Q15004: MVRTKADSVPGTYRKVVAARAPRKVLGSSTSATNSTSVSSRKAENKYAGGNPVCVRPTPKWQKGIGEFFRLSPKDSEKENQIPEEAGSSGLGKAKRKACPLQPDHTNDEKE
UniProt Q9BRP1: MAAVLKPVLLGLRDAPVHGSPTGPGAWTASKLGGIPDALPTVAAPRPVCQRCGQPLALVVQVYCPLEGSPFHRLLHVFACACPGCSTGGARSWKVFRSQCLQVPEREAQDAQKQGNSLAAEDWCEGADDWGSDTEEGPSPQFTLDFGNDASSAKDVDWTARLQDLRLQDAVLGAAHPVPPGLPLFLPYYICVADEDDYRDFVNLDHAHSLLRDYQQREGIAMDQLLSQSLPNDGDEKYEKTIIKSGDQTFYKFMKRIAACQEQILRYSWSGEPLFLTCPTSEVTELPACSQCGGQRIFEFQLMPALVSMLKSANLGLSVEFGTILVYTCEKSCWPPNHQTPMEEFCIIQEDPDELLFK
UniProt O14737: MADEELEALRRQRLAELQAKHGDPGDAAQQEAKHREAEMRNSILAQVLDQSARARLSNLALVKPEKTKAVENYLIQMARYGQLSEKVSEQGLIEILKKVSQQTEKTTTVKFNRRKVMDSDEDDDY
UniProt Q9BYG5: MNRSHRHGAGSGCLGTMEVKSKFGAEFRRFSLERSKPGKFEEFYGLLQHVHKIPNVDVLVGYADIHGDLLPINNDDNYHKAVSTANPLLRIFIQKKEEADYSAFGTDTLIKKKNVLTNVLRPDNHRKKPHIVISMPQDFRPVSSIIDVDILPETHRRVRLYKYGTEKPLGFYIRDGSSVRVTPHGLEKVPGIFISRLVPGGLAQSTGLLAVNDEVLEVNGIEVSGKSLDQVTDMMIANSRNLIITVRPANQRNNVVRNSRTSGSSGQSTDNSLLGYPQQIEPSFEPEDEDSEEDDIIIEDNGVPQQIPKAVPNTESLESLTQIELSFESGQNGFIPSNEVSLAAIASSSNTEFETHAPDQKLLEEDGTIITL
UniProt Q7L3T8: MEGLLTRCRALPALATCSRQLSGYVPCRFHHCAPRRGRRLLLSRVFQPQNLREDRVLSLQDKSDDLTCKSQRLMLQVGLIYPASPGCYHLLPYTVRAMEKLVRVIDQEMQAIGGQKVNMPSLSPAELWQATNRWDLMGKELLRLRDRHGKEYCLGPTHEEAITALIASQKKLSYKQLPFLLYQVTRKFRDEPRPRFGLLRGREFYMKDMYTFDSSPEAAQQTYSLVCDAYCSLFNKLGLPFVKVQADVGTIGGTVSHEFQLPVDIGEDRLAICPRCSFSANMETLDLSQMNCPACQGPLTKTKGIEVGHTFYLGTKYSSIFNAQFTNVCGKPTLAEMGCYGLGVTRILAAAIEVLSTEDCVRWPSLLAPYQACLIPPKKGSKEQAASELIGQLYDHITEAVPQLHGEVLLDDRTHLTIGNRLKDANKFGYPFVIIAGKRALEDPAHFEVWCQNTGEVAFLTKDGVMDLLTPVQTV

Legend:
Assay in all cases: log2 fold change, soluble protein after heating vs DMSO (PISA); higher = thermal stabilisation; K562 cells, 10 uM, 30 min; active = over 0.2 and 3.5 SD of the protein, either way, in both replicates (recomputed)
erlotinib = compound: C#Cc1cccc(Nc2ncnc3cc(OCCOC)c(OCCOC)cc23)c1 [erlotinib]
How it was run: (§1)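 Thermal stability values are relative to control samples and come from duplicates. They are expressed as log2 fold changes. For measurement, K562 cells (2×10^6 cells/mL) received 10 μM compound for 30 min, and aliquots were heated for 3 min over 48°C-58°C, pooled, and extracted at 4°C in PBS with 0.5% NP-40. Soluble protein, the supernatant after 21,000xg for 90 min, was quantified by TMTpro 16plex LC-MS/MS with equalised channel sums.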

[1] = compound: C/C(=N\NC(=O)C1=CC(=CC=C1)S(=O)(=O)N2CCOCC2)/C3=C(C=CC(=C3)Cl)O
How it was run: as §1

[2] = compound: C1=CC(=C(C=C1Cl)C2=NC3=NC=CN=C3C(=N2)NC4=CC=NC=C4)F
How it was run: as §1

[3] = compound: C1=CC(=CC=C1C2=NC3=C(N2)C=C(C=C3)C(=O)N)OC4=CC=C(C=C4)Cl
How it was run: as §1

[4] = compound: C1=CC2=C(C=CC(=C2)/C=C\3/C(=O)NC(=NCC4=CC=CS4)S3)N=C1
How it was run: as §1

[5] = compound: C1=CC2=NC=CN=C2C=C1/C=C/3\C(=O)NC(=O)S3
How it was run: as §1

[6] = compound: C1=CC=C(C=C1)C2=NC(=C(N2)C3=CC=NC=C3)C4=CC(=C(C=C4)Cl)O
How it was run: as §1

[7] = compound: C1=CC=C2C(=C1)C3=NNC4=CC=CC(=C43)C2=O
How it was run: as §1

[8] = compound: C1CCN(C1)C(=O)NC2=CC=CC(=C2)NC3=NC=C(C(=N3)NCCC4=CN=CN4)Br
How it was run: as §1

[9] = compound: C1CN(CCC1(CC2=CC=C(C=C2)Cl)N)C3=NC=NC4=C3C=CN4
How it was run: as §1

Measured: log2 fold change

PARG (UniProt Q86W56)
inactive: erlotinib 0.063 | [1] 0.067 | [2] 0.034 | [3] -0.015 | [4] 0.063 | [5] 0.059 | [6] 0.043 | [7] 0.063 | [8] -0.079 | [9] -0.071

PDSS2 (UniProt Q86YH6)
inactive: erlotinib 0.029 | [1] -0.011 | [2] -0.04 | [3] 0.012 | [4] 0.053 | [5] -0.025 | [6] 0.026 | [7] -0.006 | [8] 0.061 | [9] 0.073

PAK1 isoform 2 (UniProt Q13153)
inactive: erlotinib 0.063 | [1] 0.105 | [2] 0.067 | [3] -0.013 | [4] 0.009 | [5] 0.086 | [6] 0.027 | [7] -0.008 | [8] 0.014 | [9] 0.083

PEX11B (UniProt O96011)
inactive: erlotinib 0.016 | [1] 0.058 | [2] 0.162 | [3] -0.001 | [4] 0.056 | [5] 0.087 | [6] 0.142 | [7] -0.012 | [8] -0.097 | [9] 0.041

PDXP (UniProt Q96GD0)
inactive: erlotinib 0.011 | [1] -0.038 | [2] 0.007 | [3] 0.016 | [4] 0.024 | [5] 0.026 | [6] 0 | [7] -0.013 | [8] 0.016 | [9] 0.026

PER3 isoform 2 (UniProt P56645)
inactive: erlotinib 0.015 | [1] 0.09 | [2] -0.076 | [3] 0.021 | [4] -0.124 | [5] 0.021 | [6] -0.084 | [7] 0.014 | [8] -0.056 | [9] 0.072

PAFAH1B2 (UniProt P68402)
inactive: erlotinib 0.195 | [1] -0.088 | [2] 0.134 | [3] -0.016 | [4] -0.036 | [5] -0.034 | [6] 0.068 | [7] 0.027 | [8] 0.128 | [9] 0.047

PDE4A (UniProt P27815)
inactive: erlotinib 0.012 | [1] 0.013 | [2] 0.319 | [3] 0.024 | [4] 0.027 | [5] 0.06 | [6] -0.077 | [7] -0.01 | [8] 0.023 | [9] -0.148

PAK1IP1 (UniProt Q9NWT1)
inactive: erlotinib -0.218 | [1] -0.218 | [2] -0.56 | [3] 0.104 | [4] -0.094 | [5] 0.033 | [6] -0.073 | [7] 0.002 | [8] 0.126 | [9] -0.212

PEBP1 (UniProt P30086)
inactive: erlotinib -0.006 | [1] -0.02 | [2] 0.046 | [3] 0.005 | [4] -0.024 | [5] 0.016 | [6] -0.007 | [7] 0.002 | [8] 0.033 | [9] 0.065

PDCD10 (UniProt Q9BUL8)
inactive: erlotinib 0.018 | [1] 0.062 | [2] 0.041 | [3] 0.008 | [4] 0.052 | [5] 0.036 | [6] 0 | [7] -0.003 | [8] 0.016 | [9] 0.048

PBK (UniProt Q96KB5)
inactive: erlotinib 0.103 | [1] 0.117 | [2] -0.054 | [3] -0.037 | [4] 0.083 | [5] 0.028 | [6] 0.067 | [7] 0.016 | [8] -0.052 | [9] -0.105

PDLIM1 (UniProt O00151)
inactive: erlotinib 0.022 | [1] -0.021 | [2] 0.069 | [3] -0.009 | [4] -0.013 | [5] 0.014 | [6] 0 | [7] -0.009 | [8] -0.033 | [9] 0.04

PAK3 isoform 3 (UniProt O75914)
inactive: erlotinib 0.024 | [1] 0.049 | [2] 0.021 | [3] -0.026 | [4] -0.022 | [5] -0.004 | [6] 0.051 | [7] -0.003 | [8] 0.014 | [9] 0.02

PBXIP1 (UniProt Q96AQ6)
inactive: erlotinib -0.006 | [1] -0.051 | [2] -0.026 | [3] 0.02 | [4] 0.028 | [5] 0.049 | [6] -0.023 | [7] 0.017 | [8] -0.055 | [9] 0.002

PCNA (UniProt P12004)
inactive: erlotinib -0.016 | [1] 0.017 | [2] 0.026 | [3] 0.003 | [4] -0.006 | [5] -0.006 | [6] 0.015 | [7] 0.014 | [8] 0.03 | [9] 0.018

PELO (UniProt Q9BRX2)
inactive: erlotinib 0.153 | [1] 0.017 | [2] -0.108 | [3] 0.074 | [4] 0.105 | [5] -0.104 | [6] 0.079 | [7] 0.021 | [8] -0.097 | [9] -0.058

PET100 (UniProt P0DJ07)
inactive: erlotinib 0.007 | [1] 0 | [2] 0 | [3] -0.008 | [4] 0.118 | [5] 0.018 | [6] -0.093 | [7] 0.014 | [8] -0.02 | [9] 0.065

PCBP1 (UniProt Q15365)
inactive: erlotinib -0.009 | [1] 0.092 | [2] 0.062 | [3] -0.031 | [4] 0.011 | [5] -0.002 | [6] 0.057 | [7] 0.031 | [8] -0.034 | [9] 0.002

PCBD2 (UniProt Q9H0N5)
inactive: erlotinib 0.014 | [1] -0.025 | [2] 0.031 | [3] -0.061 | [4] 0.052 | [5] 0.016 | [6] -0.016 | [7] -0.018 | [8] 0.012 | [9] 0.071

PDHA1 isoform 4 (UniProt P08559)
inactive: erlotinib -0.106 | [1] -0.124 | [2] -0.11 | [3] 0.058 | [4] -0.036 | [5] -0.012 | [6] -0.052 | [7] 0.111 | [8] -0.05 | [9] -0.171

PABPC4 isoform 3 (UniProt Q13310)
inactive: erlotinib -0.086 | [1] 0.015 | [2] -0.118 | [3] 0.069 | [4] -0.005 | [5] -0.002 | [6] -0.022 | [7] -0.066 | [8] 0.051 | [9] -0.089

PCM1 isoform 5 (UniProt Q15154)
inactive: erlotinib -0.063 | [1] -0.113 | [2] -0.226 | [3] 0.016 | [4] -0.086 | [5] 0.028 | [6] -0.026 | [7] -0.078 | [8] -0.04 | [9] -0.024

PDIA4 (UniProt P13667)
inactive: erlotinib -0.057 | [1] -0.03 | [2] 0.021 | [3] 0.005 | [4] -0.043 | [5] 0.011 | [6] 0.032 | [7] 0.025 | [8] 0.01 | [9] -0.011

PCLAF (UniProt Q15004)
inactive: erlotinib 0.073 | [1] -0.017 | [2] -0.066 | [3] 0.016 | [4] -0.039 | [5] 0.033 | [6] -0.105 | [7] -0.13 | [8] -0.036 | [9] 0.032

PDCD2L (UniProt Q9BRP1)
inactive: erlotinib -0.051 | [1] 0.226 | [2] 0.128 | [3] 0.03 | [4] 0.006 | [5] -0.03 | [6] -0.078 | [7] -0.001 | [8] -0.071 | [9] -0.036

PDCD5 (UniProt O14737)
inactive: erlotinib -0.003 | [1] -0.003 | [2] 0.125 | [3] -0.015 | [4] -0.004 | [5] 0.074 | [6] -0.016 | [7] -0.001 | [8] 0.003 | [9] 0.004

PARD6B (UniProt Q9BYG5)
inactive: erlotinib 0.004 | [1] -0.008 | [2] -0.059 | [3] -0.109 | [4] 0.078 | [5] 0.036 | [6] 0.062 | [7] -0.159 | [8] -0.026 | [9] 0.016

PACS1 (UniProt Q6VY07)
inactive: erlotinib 0.027 | [1] 0.036 | [2] -0.049 | [3] 0.01 | [4] 0.016 | [5] -0.077 | [6] -0.039 | [7] -0.084 | [8] -0.048 | [9] -0.063

PARS2 (UniProt Q7L3T8)
inactive: erlotinib -0.067 | [1] 0.021 | [2] -0.064 | [3] 0.013 | [4] -0.047 | [5] 0.03 | [6] -0.043 | [7] -0.006 | [8] 0.033 | [9] -0.087
